Assay results taken from ChEMBL document CHEMBL5465560, “Selectivity Literature for EUbOPEN Chemogenomic Library” (2024).

By UniProt entry, the sequences of proteins in these tests, tags left out. Where a name states a change or a piece, a line headed by the entry shows the natural chain unless it says otherwise.
UniProt Q9UQB9: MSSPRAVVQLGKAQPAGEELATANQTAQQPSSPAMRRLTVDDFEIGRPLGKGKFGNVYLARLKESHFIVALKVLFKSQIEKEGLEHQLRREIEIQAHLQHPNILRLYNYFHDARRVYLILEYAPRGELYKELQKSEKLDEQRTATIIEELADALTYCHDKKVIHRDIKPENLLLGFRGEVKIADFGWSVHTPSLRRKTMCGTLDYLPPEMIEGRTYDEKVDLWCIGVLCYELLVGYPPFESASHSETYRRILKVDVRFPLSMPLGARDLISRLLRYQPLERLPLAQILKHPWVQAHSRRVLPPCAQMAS
UniProt P29323: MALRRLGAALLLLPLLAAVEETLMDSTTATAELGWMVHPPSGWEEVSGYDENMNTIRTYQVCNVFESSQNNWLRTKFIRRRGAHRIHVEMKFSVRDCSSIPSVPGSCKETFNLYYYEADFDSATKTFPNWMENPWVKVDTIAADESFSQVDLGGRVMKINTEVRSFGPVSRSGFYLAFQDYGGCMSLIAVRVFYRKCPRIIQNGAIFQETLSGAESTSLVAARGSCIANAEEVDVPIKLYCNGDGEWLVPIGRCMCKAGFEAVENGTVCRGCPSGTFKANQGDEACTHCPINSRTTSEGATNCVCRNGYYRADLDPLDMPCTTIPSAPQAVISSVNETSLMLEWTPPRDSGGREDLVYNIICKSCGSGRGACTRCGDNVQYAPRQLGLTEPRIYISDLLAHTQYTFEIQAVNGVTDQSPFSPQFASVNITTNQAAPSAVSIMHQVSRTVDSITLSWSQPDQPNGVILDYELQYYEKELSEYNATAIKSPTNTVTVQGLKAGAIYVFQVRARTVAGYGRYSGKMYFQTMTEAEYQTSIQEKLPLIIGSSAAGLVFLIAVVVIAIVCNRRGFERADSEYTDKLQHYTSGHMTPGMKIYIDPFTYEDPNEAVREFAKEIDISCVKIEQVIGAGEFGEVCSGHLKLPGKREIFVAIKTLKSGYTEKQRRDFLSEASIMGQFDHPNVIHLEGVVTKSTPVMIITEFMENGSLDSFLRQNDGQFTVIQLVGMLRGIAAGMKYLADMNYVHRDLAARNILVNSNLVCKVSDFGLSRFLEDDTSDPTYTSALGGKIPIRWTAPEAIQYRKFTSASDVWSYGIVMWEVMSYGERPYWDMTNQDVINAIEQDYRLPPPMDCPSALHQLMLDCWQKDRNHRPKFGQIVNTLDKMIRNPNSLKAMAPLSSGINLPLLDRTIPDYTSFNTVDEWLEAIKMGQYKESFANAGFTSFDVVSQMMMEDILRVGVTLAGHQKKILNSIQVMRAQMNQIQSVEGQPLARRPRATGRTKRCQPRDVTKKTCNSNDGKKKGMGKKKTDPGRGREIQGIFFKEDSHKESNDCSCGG
UniProt Q13470: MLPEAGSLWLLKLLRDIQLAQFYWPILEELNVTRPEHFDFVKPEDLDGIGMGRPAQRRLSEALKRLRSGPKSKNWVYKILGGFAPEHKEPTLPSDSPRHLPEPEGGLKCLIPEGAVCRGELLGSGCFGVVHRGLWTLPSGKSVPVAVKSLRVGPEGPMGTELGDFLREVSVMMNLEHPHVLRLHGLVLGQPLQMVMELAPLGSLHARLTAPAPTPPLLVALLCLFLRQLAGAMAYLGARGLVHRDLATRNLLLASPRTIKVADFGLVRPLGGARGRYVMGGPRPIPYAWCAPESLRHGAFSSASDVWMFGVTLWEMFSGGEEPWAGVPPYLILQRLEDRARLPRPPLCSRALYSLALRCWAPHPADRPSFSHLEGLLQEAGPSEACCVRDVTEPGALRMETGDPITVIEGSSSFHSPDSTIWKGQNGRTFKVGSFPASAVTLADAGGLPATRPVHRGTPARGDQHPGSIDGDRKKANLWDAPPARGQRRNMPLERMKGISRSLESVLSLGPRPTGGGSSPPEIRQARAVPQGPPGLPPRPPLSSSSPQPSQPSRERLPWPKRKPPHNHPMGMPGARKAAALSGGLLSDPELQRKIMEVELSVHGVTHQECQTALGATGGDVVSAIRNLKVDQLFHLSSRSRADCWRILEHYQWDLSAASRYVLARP
UniProt P48736: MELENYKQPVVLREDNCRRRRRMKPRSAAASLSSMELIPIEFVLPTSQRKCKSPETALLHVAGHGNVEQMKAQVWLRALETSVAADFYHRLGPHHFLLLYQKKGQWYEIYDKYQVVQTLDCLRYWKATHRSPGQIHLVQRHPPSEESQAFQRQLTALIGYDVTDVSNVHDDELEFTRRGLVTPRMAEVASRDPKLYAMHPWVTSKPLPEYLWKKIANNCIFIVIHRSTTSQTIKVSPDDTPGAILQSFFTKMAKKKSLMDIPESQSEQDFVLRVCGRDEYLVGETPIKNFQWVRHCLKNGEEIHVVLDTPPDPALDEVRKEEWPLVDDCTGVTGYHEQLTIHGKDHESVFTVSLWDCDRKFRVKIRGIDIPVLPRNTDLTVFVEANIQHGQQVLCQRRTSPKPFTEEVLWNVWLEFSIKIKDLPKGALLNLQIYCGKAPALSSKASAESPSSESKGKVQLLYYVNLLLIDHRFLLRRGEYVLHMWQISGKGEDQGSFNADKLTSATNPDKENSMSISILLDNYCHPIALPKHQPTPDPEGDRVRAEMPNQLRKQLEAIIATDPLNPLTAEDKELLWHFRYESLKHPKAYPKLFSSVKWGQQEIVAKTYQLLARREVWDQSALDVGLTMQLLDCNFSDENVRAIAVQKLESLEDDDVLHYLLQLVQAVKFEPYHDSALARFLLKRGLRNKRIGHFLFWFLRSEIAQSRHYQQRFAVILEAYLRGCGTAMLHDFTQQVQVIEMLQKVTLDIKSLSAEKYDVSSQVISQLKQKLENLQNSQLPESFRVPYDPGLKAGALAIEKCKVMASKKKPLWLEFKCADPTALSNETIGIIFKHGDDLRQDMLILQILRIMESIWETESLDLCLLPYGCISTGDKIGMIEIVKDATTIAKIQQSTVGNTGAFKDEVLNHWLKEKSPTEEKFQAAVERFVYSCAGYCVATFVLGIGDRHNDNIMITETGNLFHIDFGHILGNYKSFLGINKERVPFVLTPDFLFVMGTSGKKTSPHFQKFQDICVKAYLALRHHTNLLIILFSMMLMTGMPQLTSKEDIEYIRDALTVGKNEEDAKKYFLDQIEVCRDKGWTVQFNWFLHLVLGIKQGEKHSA
UniProt O75116: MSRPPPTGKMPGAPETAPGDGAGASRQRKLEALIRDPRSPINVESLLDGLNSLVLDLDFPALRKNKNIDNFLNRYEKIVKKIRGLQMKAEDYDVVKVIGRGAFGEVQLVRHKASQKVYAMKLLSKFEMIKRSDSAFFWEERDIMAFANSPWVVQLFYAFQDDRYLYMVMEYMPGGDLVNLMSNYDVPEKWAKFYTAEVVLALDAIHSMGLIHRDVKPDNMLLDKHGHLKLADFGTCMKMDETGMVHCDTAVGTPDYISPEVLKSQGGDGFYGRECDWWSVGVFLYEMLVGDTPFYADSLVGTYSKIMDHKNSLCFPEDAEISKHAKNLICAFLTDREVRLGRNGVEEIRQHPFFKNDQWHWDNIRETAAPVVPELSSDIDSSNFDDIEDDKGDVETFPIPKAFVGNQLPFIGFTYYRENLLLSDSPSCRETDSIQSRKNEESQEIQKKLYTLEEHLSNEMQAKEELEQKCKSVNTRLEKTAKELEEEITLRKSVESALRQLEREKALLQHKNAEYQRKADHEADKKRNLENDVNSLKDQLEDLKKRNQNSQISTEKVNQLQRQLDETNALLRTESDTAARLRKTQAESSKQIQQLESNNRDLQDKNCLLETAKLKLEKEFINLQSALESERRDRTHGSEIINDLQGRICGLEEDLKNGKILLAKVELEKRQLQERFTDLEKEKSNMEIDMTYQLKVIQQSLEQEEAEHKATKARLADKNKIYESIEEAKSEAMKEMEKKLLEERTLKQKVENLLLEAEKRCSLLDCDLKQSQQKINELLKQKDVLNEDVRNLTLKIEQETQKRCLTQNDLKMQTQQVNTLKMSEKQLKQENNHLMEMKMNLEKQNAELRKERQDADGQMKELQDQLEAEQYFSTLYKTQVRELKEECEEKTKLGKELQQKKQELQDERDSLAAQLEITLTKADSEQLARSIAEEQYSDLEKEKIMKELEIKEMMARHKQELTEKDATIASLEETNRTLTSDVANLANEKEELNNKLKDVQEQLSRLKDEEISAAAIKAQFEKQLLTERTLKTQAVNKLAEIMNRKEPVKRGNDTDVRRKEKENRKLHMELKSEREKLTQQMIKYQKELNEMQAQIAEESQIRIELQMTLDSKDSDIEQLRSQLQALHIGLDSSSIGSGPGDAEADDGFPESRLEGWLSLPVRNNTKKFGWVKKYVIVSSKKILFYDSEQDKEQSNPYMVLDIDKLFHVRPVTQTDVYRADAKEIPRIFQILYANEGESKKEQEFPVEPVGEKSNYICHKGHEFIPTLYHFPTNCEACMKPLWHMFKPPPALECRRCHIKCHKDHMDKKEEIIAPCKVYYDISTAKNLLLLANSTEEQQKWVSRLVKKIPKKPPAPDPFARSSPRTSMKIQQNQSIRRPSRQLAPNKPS
UniProt Q96NX5: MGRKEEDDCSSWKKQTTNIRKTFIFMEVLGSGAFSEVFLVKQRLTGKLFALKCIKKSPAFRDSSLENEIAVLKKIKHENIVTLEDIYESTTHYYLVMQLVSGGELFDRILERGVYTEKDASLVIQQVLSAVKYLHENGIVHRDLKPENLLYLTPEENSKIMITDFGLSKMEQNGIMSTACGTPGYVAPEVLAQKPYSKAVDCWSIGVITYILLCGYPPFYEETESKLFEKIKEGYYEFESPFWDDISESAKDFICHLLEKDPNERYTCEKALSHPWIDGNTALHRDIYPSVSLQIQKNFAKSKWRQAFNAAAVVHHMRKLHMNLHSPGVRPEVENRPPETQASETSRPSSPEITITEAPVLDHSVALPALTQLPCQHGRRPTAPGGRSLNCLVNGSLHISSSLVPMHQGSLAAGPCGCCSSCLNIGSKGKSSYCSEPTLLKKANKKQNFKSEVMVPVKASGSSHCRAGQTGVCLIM
UniProt P09619, whole entry: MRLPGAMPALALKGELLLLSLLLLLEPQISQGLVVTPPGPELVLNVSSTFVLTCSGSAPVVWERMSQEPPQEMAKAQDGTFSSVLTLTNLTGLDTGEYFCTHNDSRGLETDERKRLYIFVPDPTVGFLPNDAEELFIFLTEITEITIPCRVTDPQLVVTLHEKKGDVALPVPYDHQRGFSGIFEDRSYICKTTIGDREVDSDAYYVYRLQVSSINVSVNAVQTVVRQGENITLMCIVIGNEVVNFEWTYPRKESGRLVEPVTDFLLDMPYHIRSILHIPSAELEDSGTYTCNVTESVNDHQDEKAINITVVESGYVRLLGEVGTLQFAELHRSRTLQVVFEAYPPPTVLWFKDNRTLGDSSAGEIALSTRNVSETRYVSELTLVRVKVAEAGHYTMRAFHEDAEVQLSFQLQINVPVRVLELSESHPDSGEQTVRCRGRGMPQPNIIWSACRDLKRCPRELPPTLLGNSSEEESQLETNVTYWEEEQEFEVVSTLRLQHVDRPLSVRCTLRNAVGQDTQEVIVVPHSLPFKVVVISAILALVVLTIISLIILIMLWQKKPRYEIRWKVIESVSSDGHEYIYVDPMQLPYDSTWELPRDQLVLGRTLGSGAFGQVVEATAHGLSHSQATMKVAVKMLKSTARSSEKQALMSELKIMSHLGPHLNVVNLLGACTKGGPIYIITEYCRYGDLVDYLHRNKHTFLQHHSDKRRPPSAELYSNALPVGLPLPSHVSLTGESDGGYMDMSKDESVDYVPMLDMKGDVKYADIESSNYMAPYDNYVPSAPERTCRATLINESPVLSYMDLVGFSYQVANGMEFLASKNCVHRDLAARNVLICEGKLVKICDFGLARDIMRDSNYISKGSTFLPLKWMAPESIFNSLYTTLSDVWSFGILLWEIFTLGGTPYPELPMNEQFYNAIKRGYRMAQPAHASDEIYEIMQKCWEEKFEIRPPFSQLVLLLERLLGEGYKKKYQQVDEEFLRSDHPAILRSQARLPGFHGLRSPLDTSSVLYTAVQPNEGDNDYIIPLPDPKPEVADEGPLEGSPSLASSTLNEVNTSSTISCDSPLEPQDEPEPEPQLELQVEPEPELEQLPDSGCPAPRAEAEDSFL
UniProt Q86UX6: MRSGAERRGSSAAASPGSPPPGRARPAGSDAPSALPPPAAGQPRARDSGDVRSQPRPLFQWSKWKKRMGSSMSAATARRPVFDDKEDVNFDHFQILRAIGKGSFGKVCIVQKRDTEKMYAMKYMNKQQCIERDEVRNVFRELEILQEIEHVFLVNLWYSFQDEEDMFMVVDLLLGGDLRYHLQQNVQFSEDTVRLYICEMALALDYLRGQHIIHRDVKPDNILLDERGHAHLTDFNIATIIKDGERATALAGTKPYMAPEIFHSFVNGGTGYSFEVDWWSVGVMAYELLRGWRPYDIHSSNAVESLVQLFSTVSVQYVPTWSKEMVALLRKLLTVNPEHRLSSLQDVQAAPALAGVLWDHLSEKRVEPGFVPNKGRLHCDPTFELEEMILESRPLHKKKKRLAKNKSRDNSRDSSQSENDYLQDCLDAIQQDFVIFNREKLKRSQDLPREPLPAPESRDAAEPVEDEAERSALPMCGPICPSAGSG

Columns and labels:
Settings in all cases: at 1 µM
[1] = target: Aurora kinase C (Homo sapiens) (UniProt Q9UQB9); test: Selectivity interaction (KinomeScan (DiscoverX)) EUB0001581a AURKC
[2] = target: Fibroblast growth factor receptor 4 (Homo sapiens, UniProt P22455); test: Selectivity interaction (KinomeScan (DiscoverX)) EUB0001581a FGFR4
[3] = target: Serine/threonine-protein kinase RIO2 (Homo sapiens) (UniProt Q9BVS4)
[4] = target: Ephrin type-B receptor 2 (Homo sapiens) (UniProt P29323); test: Selectivity interaction (KinomeScan (DiscoverX)) EUB0001581a EPHB2
[5] = target: Serine/threonine-protein kinase 10 (Homo sapiens) (UniProt O94804); test: Selectivity interaction (KinomeScan (DiscoverX)) EUB0001581a STK10
[6] = target: Activin receptor type-1 (Homo sapiens) (UniProt Q04771); test: Selectivity interaction (KinomeScan (DiscoverX)) EUB0001581a ACVR1
[7] = target: Ephrin type-B receptor 1 (Homo sapiens) (UniProt P54762); test: Selectivity interaction (KinomeScan (DiscoverX)) EUB0001581a EPHB1
[8] = target: Serine/threonine-protein kinase 33 (Homo sapiens) (UniProt Q9BYT3); test: Selectivity interaction (KinomeScan (DiscoverX)) EUB0001581a STK33
[9] = target: Serine/threonine-protein kinase SIK1 (Homo sapiens) (UniProt P57059); test: Selectivity interaction (KinomeScan (DiscoverX)) EUB0001581a SIK1
[10] = target: Casein kinase II subunit alpha (Homo sapiens, UniProt P68400); test: Selectivity interaction (KinomeScan (DiscoverX)) EUB0001581a CSNK2A1
[11] = target: TGF-beta receptor type-1 (Homo sapiens) (UniProt P36897); test: Selectivity interaction (KinomeScan (DiscoverX)) EUB0001581a TGFBR1
[12] = target: SRSF protein kinase 3 (Homo sapiens) (UniProt Q9UPE1); test: Selectivity interaction (KinomeScan (DiscoverX)) EUB0001581a SRPK3
[13] = target: SRSF protein kinase 2 (Homo sapiens) (UniProt P78362); test: Selectivity interaction (KinomeScan (DiscoverX)) EUB0001581a SRPK2
[14] = target: Serine/threonine-protein kinase 26 (Homo sapiens, UniProt Q9P289); test: Selectivity interaction (KinomeScan (DiscoverX)) EUB0001581a STK26
[15] = target: Leukocyte tyrosine kinase receptor (Homo sapiens, UniProt P29376); test: Selectivity interaction (KinomeScan (DiscoverX)) EUB0001581a LTK
[16] = target: Non-receptor tyrosine-protein kinase TNK1 (Homo sapiens) (UniProt Q13470); test: Selectivity interaction (KinomeScan (DiscoverX)) EUB0001581a TNK1
[17] = target: Homeodomain-interacting protein kinase 3 (Homo sapiens, UniProt Q9H422); test: Selectivity interaction (KinomeScan (DiscoverX)) EUB0001581a HIPK3
[18] = target: Serine/threonine-protein kinase MRCK alpha (Homo sapiens) (UniProt Q5VT25); test: Selectivity interaction (KinomeScan (DiscoverX)) EUB0001581a CDC42BPA
[19] = target: Phosphatidylinositol 4,5-bisphosphate 3-kinase catalytic subunit gamma isoform (Homo sapiens) (UniProt P48736); test: Selectivity interaction (KinomeScan (DiscoverX)) EUB0001581a PIK3CG
[20] = target: Rho-associated protein kinase 2 (Homo sapiens, UniProt O75116); test: Selectivity interaction (KinomeScan (DiscoverX)) EUB0001581a ROCK2
[21] = target: Mitogen-activated protein kinase kinase kinase 20 (Homo sapiens) (UniProt Q9NYL2); test: Selectivity interaction (KinomeScan (DiscoverX)) EUB0001581a MAP3K20
[22] = target: NUAK family SNF1-like kinase 1 (Homo sapiens) (UniProt O60285); test: Selectivity interaction (KinomeScan (DiscoverX)) EUB0001581a NUAK1
[23] = target: Serine/threonine-protein kinase Nek9 (Homo sapiens) (UniProt Q8TD19); test: Selectivity interaction (KinomeScan (DiscoverX)) EUB0001581a NEK9
[24] = target: Bone morphogenetic protein receptor type-2 (Homo sapiens) (UniProt Q13873); test: Selectivity interaction (KinomeScan (DiscoverX)) EUB0001581a BMPR2
[25] = target: Calcium/calmodulin-dependent protein kinase type 1G (Homo sapiens) (UniProt Q96NX5); test: Selectivity interaction (KinomeScan (DiscoverX)) EUB0001581a CAMK1G
[26] = target: Cyclin-dependent kinase 7 (Homo sapiens, UniProt P50613)
[27] = target: Serine/threonine-protein kinase RIO1 (Homo sapiens) (UniProt Q9BRS2); test: Selectivity interaction (KinomeScan (DiscoverX)) EUB0001581a RIOK1
[28] = target: Cyclin-dependent kinase 17 (Homo sapiens) (UniProt Q00537); test: Selectivity interaction (KinomeScan (DiscoverX)) EUB0001581a CDK17
[29] = target: Serine/threonine-protein kinase Chk2 (Homo sapiens) (UniProt O96017); test: Selectivity interaction (KinomeScan (DiscoverX)) EUB0001581a CHEK2
[30] = target: Serine/threonine-protein kinase PAK 3 (Homo sapiens) (UniProt O75914); test: Selectivity interaction (KinomeScan (DiscoverX)) EUB0001581a PAK3
[31] = target: Interleukin-1 receptor-associated kinase 3 (Homo sapiens) (UniProt Q9Y616); test: Selectivity interaction (KinomeScan (DiscoverX)) EUB0001581a IRAK3
[32] = target: Wee1-like protein kinase (Homo sapiens) (UniProt P30291); test: Selectivity interaction (KinomeScan (DiscoverX)) EUB0001581a WEE1
[33] = target: Dual specificity protein kinase CLK3 (Homo sapiens, UniProt P49761); test: Selectivity interaction (KinomeScan (DiscoverX)) EUB0001581a CLK3
[34] = target: Mitogen-activated protein kinase 3 (Homo sapiens, UniProt P27361)
[35] = target: Platelet-derived growth factor receptor beta (Homo sapiens, UniProt P09619); test: Selectivity interaction (KinomeScan (DiscoverX)) EUB0001581a PDGFRB
[36] = target: Mitogen-activated protein kinase 13 (Homo sapiens) (UniProt O15264); test: Selectivity interaction (KinomeScan (DiscoverX)) EUB0001581a MAPK13
[37] = target: Serine/threonine-protein kinase 32C (Homo sapiens) (UniProt Q86UX6); test: Selectivity interaction (KinomeScan (DiscoverX)) EUB0001581a STK32C
[38] = target: 5'-AMP-activated protein kinase catalytic subunit alpha-1 (Homo sapiens, UniProt Q13131); test: Selectivity interaction (KinomeScan (DiscoverX)) EUB0001581a PRKAA1
Ephrin type-A receptor 4 = Ephrin type-A receptor 4 (Homo sapiens, UniProt P54764); test: Selectivity interaction (KinomeScan (DiscoverX)) EUB0001581a EPHA4

With `C[C@@H]1C[C@H](N)C[C@H](c2ccncc2NC(=O)c2ccc(F)c(-c3c(F)cccc3F)n2)C1` the % of control [1] was 100%, the % of control [2] was 91% and the % of control [3] was 95%. The % of control [4] was 100%, the % of control [5] was 99% and the % of control [6] was 87%. For the same compound, the % of control [7] was 88%, the % of control [8] was 99% and the % of control [9] was 100%. The % of control [10] was 77%, the % of control [11] was 100% and the % of control [12] was 100%. The % of control [13] was 98%, the % of control [14] was 100% and the % of control [15] was 88%. The % of control [16] was 100%, the % of control [17] was 93% and the % of control [18] was 100%. The % of control [19] was 34%, the % of control [20] was 77% and the % of control [21] was 100%. It also gave a % of control [22] of 81%, a % of control [23] of 100% and a % of control [24] of 100%. The % of control [25] was 83%, the % of control [26] was 94% and the % of control [27] was 78%. The % of control [28] was 100%, the % of control [29] was 73% and the % of control [30] was 100%. The % of control [31] was 97%, the % of control [32] was 100% and the % of control [33] was 87%. For the same compound, the % of control [34] was 95%, the % of control [35] was 59% and the % of control [36] was 76%. For the same compound, the % of control [37] was 100%, the % of control [38] was 93% and the % of control (Ephrin type-A receptor 4) was 100%.
